Results as given in the supplement of paper PMC4604168 (melanoma cell lines).
The list shows a part of the results. Repeats are few or missing, and single values can be far off.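 Cells were imaged in 1,536-well plates, and nuclei stained with an antibody against cleaved PARP were counted against all DNA-stained nuclei to give the apoptosis fraction. Screening doses were chosen to leave most cells alive, and resting and induced cleaved-PARP levels differ strongly between cell lines.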

system: WM115; assay: cleaved PARP positive nuclei fraction relative to DMSO control; melanoma cells; higher = more apoptosis; conditions: library dose: low library concentration; 72 h

SMILES	cleaved PARP positive nuclei fraction [%]
C[C@]12O[C@H](C[C@]1(O)CO)n1c3ccccc3c3c4c(c5c6ccccc6n2c5c31)CNC4=O [Lestaurtinib] + CCN(CC)CCCCNc1ncc2cc(-c3cc(OC)cc(OC)c3)c(NC(=O)NC(C)(C)C)nc2n1 [PD173074] (first compound 0.004 µM, partner dose 0.1 µM)	102
N#Cc1c(O)c2c(-c3ccc(-c4ccccc4O)cc3)csc2[nH]c1=O + O=C(Oc1ccc([N+](=O)[O-])cc1)N1CCC(C(O)(c2ccc3c(c2)OCO3)c2ccc3c(c2)OCO3)CC1 [JZL184] (first compound 2 µM, partner dose 1 µM)	38.9
C[C@]12O[C@H](C[C@]1(O)CO)n1c3ccccc3c3c4c(c5c6ccccc6n2c5c31)CNC4=O [Lestaurtinib] + O=c1cc(-c2cccc3c2Sc2ccccc2S3)oc(N2CCOCC2)c1 [KU55933] (first compound 0.004 µM, partner dose 1 µM)	320
CCc1ccc(CCOc2ccc(CC3SC(=O)NC3=O)cc2)nc1 (stereo unspecified) [pioglitazone] + O=C(Oc1ccc([N+](=O)[O-])cc1)N1CCC(C(O)(c2ccc3c(c2)OCO3)c2ccc3c(c2)OCO3)CC1 [JZL184] (first compound 2 µM, partner dose 1 µM)	199
COc1cc2c(Oc3ccc4[nH]c(C)cc4c3F)ncnc2cc1OCCCN1CCCC1 [cediranib] + Cc1cc(SCc2sc(-c3ccc(C(F)(F)F)c(F)c3)nc2C)ccc1OCC(=O)O [GW0742] (first compound 0.4 µM, partner dose 2 µM)	131
Cc1cc(SCc2sc(-c3ccc(C(F)(F)F)c(F)c3)nc2C)ccc1OCC(=O)O + O=C(Oc1ccc([N+](=O)[O-])cc1)N1CCC(C(O)(c2ccc3c(c2)OCO3)c2ccc3c(c2)OCO3)CC1 [JZL184] (first compound 2 µM, partner dose 1 µM)	142
Cc1cc(SCc2sc(-c3ccc(C(F)(F)F)c(F)c3)nc2C)ccc1OCC(=O)O + COc1cc(N2CCC(N3CCN(C)CC3)CC2)ccc1Nc1ncc(Cl)c(Nc2ccccc2S(=O)(=O)C(C)C)n1 [NVP-TAE684] (first compound 2 µM, partner dose 0.08 µM)	83.7
C[C@]12O[C@H](C[C@]1(O)CO)n1c3ccccc3c3c4c(c5c6ccccc6n2c5c31)CNC4=O [Lestaurtinib] + COC(=O)c1sccc1S(=O)(=O)Nc1ccc(Nc2ccccc2)cc1OC [GSK0660] (first compound 0.004 µM, partner dose 1 µM)	60.6
C[C@]12O[C@H](C[C@]1(O)CO)n1c3ccccc3c3c4c(c5c6ccccc6n2c5c31)CNC4=O [Lestaurtinib] + CC1(C)NC(=O)N(c2ccc([N+](=O)[O-])c(C(F)(F)F)c2)C1=O [nilutamide] (first compound 0.004 µM, partner dose 1 µM)	123
O=C1NC(=O)/C(=C/c2ccc(-c3ccc(F)cc3O)o2)S1 + O=C(Oc1ccc([N+](=O)[O-])cc1)N1CCC(C(O)(c2ccc3c(c2)OCO3)c2ccc3c(c2)OCO3)CC1 [JZL184] (first compound 1 µM, partner dose 1 µM)	190
Oc1cc(-c2nc(-c3ccccc3)[nH]c2-c2ccncc2)ccc1Cl + O=C(Oc1ccc([N+](=O)[O-])cc1)N1CCC(C(O)(c2ccc3c(c2)OCO3)c2ccc3c(c2)OCO3)CC1 [JZL184] (first compound 0.2 µM, partner dose 1 µM)	216
C[C@]12O[C@H](C[C@]1(O)CO)n1c3ccccc3c3c4c(c5c6ccccc6n2c5c31)CNC4=O [Lestaurtinib] + O=S(=O)(c1ccccc1)N(CC(F)(F)F)c1ccc(C(O)(C(F)(F)F)C(F)(F)F)cc1 [T0901317] (first compound 0.004 µM, partner dose 1.4 µM)	77.9
NCC(=O)Nc1ccc(-n2nc(C(F)(F)F)cc2-c2ccc3c(ccc4ccccc43)c2)cc1 + O=C(Oc1ccc([N+](=O)[O-])cc1)N1CCC(C(O)(c2ccc3c(c2)OCO3)c2ccc3c(c2)OCO3)CC1 [JZL184] (first compound 1 µM, partner dose 1 µM)	88.2
C[C@@H]1CCN(C(=O)CC#N)C[C@@H]1N(C)c1ncnc2[nH]ccc12 + C/C(O)=C(\C#N)C(=O)Nc1cc(Br)ccc1Br [LFM-A13] (first compound 1 µM, partner dose 2 µM)	126
C[As](C)SC[C@H](NC(=O)CC[C@H](N)C(=O)O)C(=O)NCC(=O)O [Darinaparsin] + O=C(Nc1ccccc1)c1cc([N+](=O)[O-])ccc1Cl [GW9662] (first compound 0.4 µM, partner dose 2 µM)	98.6
C[C@]12O[C@H](C[C@]1(O)CO)n1c3ccccc3c3c4c(c5c6ccccc6n2c5c31)CNC4=O [Lestaurtinib] + O=C(O)c1ccc(-c2c[nH]c3ncc(-c4ccccc4)cc23)cc1C1CCCC1 [GSK650394] (first compound 0.004 µM, partner dose 0.16 µM)	66.2

SMILES	cleaved PARP positive nuclei fraction [%]
C[C@]12O[C@H](C[C@]1(O)CO)n1c3ccccc3c3c4c(c5c6ccccc6n2c5c31)CNC4=O [Lestaurtinib] + Oc1cc(-c2nc(-c3ccccc3)[nH]c2-c2ccncc2)ccc1Cl [L779450] (first compound 0.004 µM, partner dose 0.2 µM)	85.4
COc1ccc2c(c1)CCC1C2CCC2(C)C(NCCCCCCN3C(=O)C=CC3=O)CCC12 (stereo unspecified) + C/C(O)=C(\C#N)C(=O)Nc1cc(Br)ccc1Br [LFM-A13] (first compound 0.4 µM, partner dose 2 µM)	94.3
Cc1cc(SCc2sc(-c3ccc(C(F)(F)F)c(F)c3)nc2C)ccc1OCC(=O)O + C/C(O)=C(\C#N)C(=O)Nc1cc(Br)ccc1Br [LFM-A13] (first compound 2 µM, partner dose 2 µM)	104
COC(=O)c1sccc1S(=O)(=O)Nc1ccc(Nc2ccccc2)cc1OC + C/C(O)=C(\C#N)C(=O)Nc1cc(Br)ccc1Br [LFM-A13] (first compound 1 µM, partner dose 2 µM)	127
O=C(O)c1ccc(-c2c[nH]c3ncc(-c4ccccc4)cc23)cc1C1CCCC1 + O=C(Oc1ccc([N+](=O)[O-])cc1)N1CCC(C(O)(c2ccc3c(c2)OCO3)c2ccc3c(c2)OCO3)CC1 [JZL184] (first compound 0.16 µM, partner dose 1 µM)	66
C[C@@H]1CCN(C(=O)CC#N)C[C@@H]1N(C)c1ncnc2[nH]ccc12 + Cc1cc(SCc2sc(-c3ccc(C(F)(F)F)c(F)c3)nc2C)ccc1OCC(=O)O [GW0742] (first compound 1 µM, partner dose 2 µM)	67.6
O=C(Nc1cccc(Cl)c1)Nc1ncc(CCNc2ncnc3ccsc23)s1 + Cc1cc(SCc2sc(-c3ccc(C(F)(F)F)c(F)c3)nc2C)ccc1OCC(=O)O [GW0742] (first compound 0.0008 µM, partner dose 2 µM)	187
C[C@]12O[C@H](C[C@]1(O)CO)n1c3ccccc3c3c4c(c5c6ccccc6n2c5c31)CNC4=O [Lestaurtinib] + COc1cc2ncnc(Nc3ccc(Oc4ccccc4)cc3)c2cc1OC [SrcI1] (first compound 0.004 µM, partner dose 2 µM)	95
C[As](C)SC[C@H](NC(=O)CC[C@H](N)C(=O)O)C(=O)NCC(=O)O [Darinaparsin] + COc1ccc(COc2ccc(Cc3cnc(N)nc3N)cc2OC)cc1 [GW2580] (first compound 0.4 µM, partner dose 1 µM)	132
C[C@]12O[C@H](C[C@]1(O)CO)n1c3ccccc3c3c4c(c5c6ccccc6n2c5c31)CNC4=O [Lestaurtinib] + COc1ccc(-c2ccc3c(N4CCOCC4)nc(N4C[C@@H](C)O[C@@H](C)C4)nc3n2)cc1CO [KU0063794] (first compound 0.004 µM, partner dose 0.02 µM)	120
O=S(=O)(c1ccccc1)N(CC(F)(F)F)c1ccc(C(O)(C(F)(F)F)C(F)(F)F)cc1 + Cc1cc(SCc2sc(-c3ccc(C(F)(F)F)c(F)c3)nc2C)ccc1OCC(=O)O [GW0742] (first compound 1.4 µM, partner dose 2 µM)	59.5
COc1ccc(COc2ccc(Cc3cnc(N)nc3N)cc2OC)cc1 + Cc1cc(SCc2sc(-c3ccc(C(F)(F)F)c(F)c3)nc2C)ccc1OCC(=O)O [GW0742] (first compound 1 µM, partner dose 2 µM)	51.3
C[As](C)SC[C@H](NC(=O)CC[C@H](N)C(=O)O)C(=O)NCC(=O)O [Darinaparsin] + CCc1ccc(CCOc2ccc(CC3SC(=O)NC3=O)cc2)nc1 [pioglitazone] (first compound 0.4 µM, partner dose 2 µM)	69.9
O=C(Oc1ccc([N+](=O)[O-])cc1)N1CCC(C(O)(c2ccc3c(c2)OCO3)c2ccc3c(c2)OCO3)CC1 + CC(C)CCN1c2nc(Nc3cc(F)c(O)c(F)c3)ncc2N(C)C(=O)C1C [BID1870] (first compound 1 µM, partner dose 0.2 µM)	70.7
CO[C@H]1C[C@@H]2CC[C@@H](C)[C@@](O)(O2)C(=O)C(=O)N2CCCC[C@H]2C(=O)O[C@H]([C@H](C)C[C@@H]2CC[C@@H](OCCO)[C@H](OC)C2)CC(=O)[C@H](C)/C=C(\C)[C@@H](O)[C@@H](OC)C(=O)[C@H](C)C[C@H](C)/C=C/C=C/C=C/1C [everolimus] + Cc1cc(SCc2sc(-c3ccc(C(F)(F)F)c(F)c3)nc2C)ccc1OCC(=O)O [GW0742] (first compound 0.02 µM, partner dose 2 µM)	114

Reformatted in markdown: entries from further up.

| SMILES | cleaved PARP positive nuclei fraction [%] |
| --- | --- |
| C[C@]12O[C@H](C[C@]1(O)CO)n1c3ccccc3c3c4c(c5c6ccccc6n2c5c31)CNC4=O [Lestaurtinib] + Oc1cc(-c2nc(-c3ccccc3)[nH]c2-c2ccncc2)ccc1Cl [L779450] (first compound 0.004 µM, partner dose 0.2 µM) | 85.4 |
| COC(=O)c1sccc1S(=O)(=O)Nc1ccc(Nc2ccccc2)cc1OC + C/C(O)=C(\C#N)C(=O)Nc1cc(Br)ccc1Br [LFM-A13] (first compound 1 µM, partner dose 2 µM) | 127 |
| C[C@@H]1CCN(C(=O)CC#N)C[C@@H]1N(C)c1ncnc2[nH]ccc12 + Cc1cc(SCc2sc(-c3ccc(C(F)(F)F)c(F)c3)nc2C)ccc1OCC(=O)O [GW0742] (first compound 1 µM, partner dose 2 µM) | 67.6 |
| C[C@]12O[C@H](C[C@]1(O)CO)n1c3ccccc3c3c4c(c5c6ccccc6n2c5c31)CNC4=O [Lestaurtinib] + COc1cc2ncnc(Nc3ccc(Oc4ccccc4)cc3)c2cc1OC [SrcI1] (first compound 0.004 µM, partner dose 2 µM) | 95 |
| C[As](C)SC[C@H](NC(=O)CC[C@H](N)C(=O)O)C(=O)NCC(=O)O [Darinaparsin] + COc1ccc(COc2ccc(Cc3cnc(N)nc3N)cc2OC)cc1 [GW2580] (first compound 0.4 µM, partner dose 1 µM) | 132 |
| O=S(=O)(c1ccccc1)N(CC(F)(F)F)c1ccc(C(O)(C(F)(F)F)C(F)(F)F)cc1 + Cc1cc(SCc2sc(-c3ccc(C(F)(F)F)c(F)c3)nc2C)ccc1OCC(=O)O [GW0742] (first compound 1.4 µM, partner dose 2 µM) | 59.5 |
| COc1ccc(COc2ccc(Cc3cnc(N)nc3N)cc2OC)cc1 + Cc1cc(SCc2sc(-c3ccc(C(F)(F)F)c(F)c3)nc2C)ccc1OCC(=O)O [GW0742] (first compound 1 µM, partner dose 2 µM) | 51.3 |
| C[As](C)SC[C@H](NC(=O)CC[C@H](N)C(=O)O)C(=O)NCC(=O)O [Darinaparsin] + CCc1ccc(CCOc2ccc(CC3SC(=O)NC3=O)cc2)nc1 [pioglitazone] (first compound 0.4 µM, partner dose 2 µM) | 69.9 |
